Test results from article doi:10.1101/2025.10.26.684598.

Molecular target: T1, YokF of BSB1 expressed in B. subtilis PY79 (sacA::yokF_(BSB1)) (B. subtilis) (UniProt O32001)
T1 sequence: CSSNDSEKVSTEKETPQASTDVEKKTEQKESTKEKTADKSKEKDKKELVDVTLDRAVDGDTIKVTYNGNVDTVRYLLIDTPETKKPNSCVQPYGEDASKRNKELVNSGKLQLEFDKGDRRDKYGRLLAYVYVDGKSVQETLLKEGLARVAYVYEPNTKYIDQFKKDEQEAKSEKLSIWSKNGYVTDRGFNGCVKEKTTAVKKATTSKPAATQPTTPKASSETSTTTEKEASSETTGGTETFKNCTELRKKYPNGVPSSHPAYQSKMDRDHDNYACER
Assay: affinity purification with mass spectrometry

B1: FlhA (endogenous, B. subtilis PY79) (protein, UniProt P35620 1-677)
chain: MSTRDLSVLISVVLIVAMLVIPFPPWLLSILIIINISLALIVLLTTMNMQEALQFSIFPSLLLLLTLFRLGLNVSTTRSILSHGEGGKVVETFGNFVVGGNVLVGLVVFIILIIIQFIVITKGAERVSEVAARFTLDAMPGKQMSIDADLNAGMITEQEAKHRREKVAREADFYGAMDGASKFVKGDAIAGIIIVMINIIFGIVIGMLQQGMSIQEAASHFTMLTVGDGIVSQIPALLISTATGIVVTRAASEGNLGHDITGQLFAYPKLLYVAAATIMLLGIFTPIGILLTGPLAGLLAFGAYTLSKSGKEKEEVDEILEEEAEVDELKSPESVVQLLHIDPIEFEFGYGLIPLADANQGGDLLDRIVMIRRQLALELGLVIPVVRIRDNIALQPNEYRLKIKGNEVAKGELLLDHYLAMSPTPEDDLIEGIETVEPSFGLPAKWISEAVKDEADMLGYTVVDPASVVSTHITEKIKQHAHELIGRQETKQLIDHLKESYPVLVEEVTPNPLSVGDIQKVLAKLLKEKVSIRNLVTIFETLADYGKLTTDSDLLTEYTRQALAKQITAQFAKENEVLKVVTCSGRVEKAIADGVQQTEHGNYLSLEPDISESIVRSVAKEAEQLSLRQETAILLCSPPVRMYVKQLLERYFPDLPVLSYNELEANVEVQSIGVVDI
  binding: binds

No constants are given. Whether binding was seen depends on the method and setting. In cells and extracts the contact can be indirect. A yes stands for co-enrichment or nearness to the bait. Other partners may have been found.
